PMC4695033
No constants are given. Whether binding was seen depends on the method and setting. In cells and extracts the contact can be indirect. A yes stands for co-enrichment or nearness to the bait. Other partners may have been found.

Chains of the proteins cited; added tags and fusions are not shown.
UniProt Q9P2H5: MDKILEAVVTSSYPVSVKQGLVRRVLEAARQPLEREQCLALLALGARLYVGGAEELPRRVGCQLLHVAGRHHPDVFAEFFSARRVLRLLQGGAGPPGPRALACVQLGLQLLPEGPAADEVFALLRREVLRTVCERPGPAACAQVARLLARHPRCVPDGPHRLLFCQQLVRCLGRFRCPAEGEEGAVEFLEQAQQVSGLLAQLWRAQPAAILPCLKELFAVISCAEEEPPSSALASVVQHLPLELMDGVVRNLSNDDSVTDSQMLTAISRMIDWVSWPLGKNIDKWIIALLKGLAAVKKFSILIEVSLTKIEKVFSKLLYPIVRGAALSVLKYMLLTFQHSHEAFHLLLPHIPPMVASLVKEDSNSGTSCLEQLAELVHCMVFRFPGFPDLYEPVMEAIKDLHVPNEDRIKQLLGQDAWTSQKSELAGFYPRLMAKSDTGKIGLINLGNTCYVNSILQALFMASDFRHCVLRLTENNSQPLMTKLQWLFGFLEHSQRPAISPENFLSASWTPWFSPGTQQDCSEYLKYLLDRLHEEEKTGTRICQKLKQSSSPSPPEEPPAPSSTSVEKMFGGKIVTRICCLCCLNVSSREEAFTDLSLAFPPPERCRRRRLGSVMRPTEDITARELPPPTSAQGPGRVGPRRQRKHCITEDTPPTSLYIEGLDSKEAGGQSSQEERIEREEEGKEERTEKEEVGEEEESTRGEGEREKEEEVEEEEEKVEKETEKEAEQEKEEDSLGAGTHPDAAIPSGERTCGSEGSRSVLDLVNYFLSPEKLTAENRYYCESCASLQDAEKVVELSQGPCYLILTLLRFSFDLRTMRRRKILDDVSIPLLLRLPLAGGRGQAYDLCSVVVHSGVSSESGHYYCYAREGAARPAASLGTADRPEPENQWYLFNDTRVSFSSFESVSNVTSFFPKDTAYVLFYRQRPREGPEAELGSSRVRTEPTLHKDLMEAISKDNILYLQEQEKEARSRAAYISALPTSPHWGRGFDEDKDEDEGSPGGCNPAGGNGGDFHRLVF

Molecular target: Myc-tagged USP35 (ubiquitin specific protease 35) (UniProt Q9P2H5)
Assay: affinity purification with mass spectrometry; H1299 cells transfected with Myc-USP35 or empty vector; lysates immunoprecipitated with anti-Myc, SDS-PAGE, Coomassie blue R-250, a specific band excised for mass spectrometry

binding: binds
B1: endogenous ABIN-2 (TNFAIP3 interacting protein 2) (protein, UniProt Q8NFZ5 1-429)
chain: MSRDPGSGGWEEAPRAAAALCTLYHEAGQRLRRLQDQLAARDALIARLRARLAALEGDAAPSLVDALLEQVARFREQLRRQEGGAAEAQMRQEIERLTERLEEKEREMQQLLSQPQHEREKEVVLLRRSMAEGERARAASDVLCRSLANETHQLRRTLTATAHMCQHLAKCLDERQHAQRNVGERSPDQSEHTDGHTSVQSVIEKLQEENRLLKQKVTHVEDLNAKWQRYNASRDEYVRGLHAQLRGLQIPHEPELMRKEISRLNRQLEEKINDCAEVKQELAASRTARDAALERVQMLEQQILAYKDDFMSERADRERAQSRIQELEEKVASLLHQVSWRQDSREPDAGRIHAGSKTAKYLAADALELMVPGGWRPGTGSQQPEPPAEGGHPGAAQRGQGDLQCPHCLQCFSDEQGEELLRHVAECCQ
